# Assay results published in article PMC5399177.
# The chains behind the UniProt entries cited, without tags or fusion partners.
# UniProt P40763: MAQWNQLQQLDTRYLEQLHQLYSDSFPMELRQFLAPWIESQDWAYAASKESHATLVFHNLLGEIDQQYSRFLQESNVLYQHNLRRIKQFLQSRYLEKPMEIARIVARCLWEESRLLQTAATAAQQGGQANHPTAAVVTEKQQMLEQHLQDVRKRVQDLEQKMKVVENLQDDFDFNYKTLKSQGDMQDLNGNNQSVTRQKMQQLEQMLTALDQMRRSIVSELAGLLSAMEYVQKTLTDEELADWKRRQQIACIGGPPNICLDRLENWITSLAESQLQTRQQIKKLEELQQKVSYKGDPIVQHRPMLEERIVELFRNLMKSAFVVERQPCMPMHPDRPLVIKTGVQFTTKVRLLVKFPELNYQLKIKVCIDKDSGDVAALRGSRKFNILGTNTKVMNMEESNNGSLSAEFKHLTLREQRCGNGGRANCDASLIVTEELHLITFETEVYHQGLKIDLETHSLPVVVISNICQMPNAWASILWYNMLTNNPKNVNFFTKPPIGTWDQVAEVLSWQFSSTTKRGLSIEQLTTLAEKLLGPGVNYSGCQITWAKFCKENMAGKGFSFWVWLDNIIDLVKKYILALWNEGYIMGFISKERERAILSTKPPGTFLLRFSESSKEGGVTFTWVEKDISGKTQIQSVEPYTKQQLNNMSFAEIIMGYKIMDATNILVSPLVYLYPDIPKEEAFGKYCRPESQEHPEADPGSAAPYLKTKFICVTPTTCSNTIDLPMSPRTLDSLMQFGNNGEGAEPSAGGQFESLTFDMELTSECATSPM
# No constants are given. Whether binding was seen depends on the method and setting. Binding seen in cells or lysates may run through a third protein. These calls come from enrichment with a bait or labelling near it, and not all partners need be listed. Sequences can lack the tags named with a protein.
# Target: T1, Flag-DAB2IP (UniProt Q5VWQ8)
# T1 sequence: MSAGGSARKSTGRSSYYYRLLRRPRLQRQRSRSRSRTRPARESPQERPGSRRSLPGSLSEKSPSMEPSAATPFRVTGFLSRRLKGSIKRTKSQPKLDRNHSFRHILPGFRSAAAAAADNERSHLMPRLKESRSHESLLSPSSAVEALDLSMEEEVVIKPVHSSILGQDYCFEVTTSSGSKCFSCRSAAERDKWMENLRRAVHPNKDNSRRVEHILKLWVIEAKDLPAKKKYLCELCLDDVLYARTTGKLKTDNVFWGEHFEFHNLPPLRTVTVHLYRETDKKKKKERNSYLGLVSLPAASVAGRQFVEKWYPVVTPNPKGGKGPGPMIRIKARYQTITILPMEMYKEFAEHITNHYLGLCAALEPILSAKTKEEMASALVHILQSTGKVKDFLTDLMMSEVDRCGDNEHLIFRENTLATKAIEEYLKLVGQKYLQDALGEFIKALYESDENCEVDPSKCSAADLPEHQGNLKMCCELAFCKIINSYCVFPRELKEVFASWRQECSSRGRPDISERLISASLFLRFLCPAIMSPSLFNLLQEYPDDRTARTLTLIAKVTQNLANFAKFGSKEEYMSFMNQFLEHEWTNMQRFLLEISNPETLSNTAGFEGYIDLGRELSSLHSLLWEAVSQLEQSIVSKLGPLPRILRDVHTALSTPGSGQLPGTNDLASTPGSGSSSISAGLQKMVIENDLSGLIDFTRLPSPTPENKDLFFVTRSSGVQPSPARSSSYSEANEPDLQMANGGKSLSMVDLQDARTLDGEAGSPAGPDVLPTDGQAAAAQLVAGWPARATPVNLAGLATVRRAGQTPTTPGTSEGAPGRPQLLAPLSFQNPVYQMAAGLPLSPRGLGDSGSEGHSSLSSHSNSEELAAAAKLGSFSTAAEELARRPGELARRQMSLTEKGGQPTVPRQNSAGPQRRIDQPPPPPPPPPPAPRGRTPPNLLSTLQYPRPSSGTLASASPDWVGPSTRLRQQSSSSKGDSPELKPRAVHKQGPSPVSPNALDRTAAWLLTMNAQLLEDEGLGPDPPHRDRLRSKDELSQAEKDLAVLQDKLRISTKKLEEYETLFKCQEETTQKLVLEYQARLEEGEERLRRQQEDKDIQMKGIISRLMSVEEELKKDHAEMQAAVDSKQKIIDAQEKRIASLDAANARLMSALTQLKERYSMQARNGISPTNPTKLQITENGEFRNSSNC
# Test: affinity purification with mass spectrometry; HEK 293 cells transfected with flag-tagged DAB2IP, lysed, immunoprecipitated with anti-flag antibody; bands cut from Coomassie-stained SDS-PAGE gel, Orbitrap Elite LC-MS/MS
substance,measurement,value
signal transducer and activator of transcription 3 (from UniProt P40763 1-770),binding,binds
